Assay [1] has as its target T1, V5-tagged CCDC137 (human) (UniProt Q6PK04).
T1 sequence: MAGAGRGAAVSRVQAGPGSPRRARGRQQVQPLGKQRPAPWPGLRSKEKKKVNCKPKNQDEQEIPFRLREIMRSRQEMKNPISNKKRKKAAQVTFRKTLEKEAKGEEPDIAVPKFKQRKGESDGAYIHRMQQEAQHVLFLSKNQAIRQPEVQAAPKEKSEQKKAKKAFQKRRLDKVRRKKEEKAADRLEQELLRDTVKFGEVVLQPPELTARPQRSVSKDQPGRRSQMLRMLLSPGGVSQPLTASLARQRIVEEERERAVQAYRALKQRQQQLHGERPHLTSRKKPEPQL
Description: co-IP; HEK293T cells transfected 48 h with V5-tagged CCDC137 and SFB-tagged DGCR8; lysed in Enhanced RIPA Lysis Buffer with Benzonase Nuclease; precipitated with V5 affinity gel and blotted with anti-Flag (Fig. 6c), or precipitated with S-protein Agarose and blotted with anti-V5 (Fig. 6d); V5-GFP or SFB-GFP as controls.

The target of assay [2] is T2, CCDC137 (endogenous, JHH-7 cells) (human (endogenous in JHH-7)) (UniProt Q6PK04).
T2 sequence: T1 sequence
Kind of assay: co-IP; endogenous proteins in JHH-7 lysate (Enhanced RIPA Lysis Buffer with Benzonase Nuclease); precipitated with CCDC137 antibody (Proteintech 27201-1-AP, 2 ug) or Normal Rabbit IgG; Western blot; beta-actin as negative control. Background: A western blot detects proteins with antibodies after separation by electrophoresis.

No constants are given. Whether binding was seen depends on the method and setting. Binding seen in cells or lysates may run through a third protein. Some results given as binding are weak or reduced against the parent protein; the word gives no strength. For some assays here: Where a sequence is shown, tags or fusion partners need not be part of it.

B1: SFB-tagged DGCR8 (protein, UniProt Q8WYQ5 1-773)
chain: METDESPSPLPCGPAGEAVMESRARPFQALPREQSPPPPLQTSSGAEVMDVGSGGDGQSELPAEDPFNFYGASLLSKGSFSKGRLLIDPNCSGHSPRTARHAPAVRKFSPDLKLLKDVKISVSFTESCRSKDRKVLYTGAERDVRAECGLLLSPVSGDVHACPFGGSVGDGVGIGGESADKKDEENELDQEKRVEYAVLDELEDFTDNLELDEEGAGGFTAKAIVQRDRVDEEALNFPYEDDFDNDVDALLEEGLCAPKKRRTEEKYGGDSDHPSDGETSVQPMMTKIKTVLKSRGRPPTEPLPDGWIMTFHNSGVPVYLHRESRVVTWSRPYFLGTGSIRKHDPPLSSIPCLHYKKMKDNEEREQSSDLTPSGDVSPVKPLSRSAELEFPLDEPDSMGADPGPPDEKDPLGAEAAPGALGQVKAKVEVCKDESVDLEEFRSYLEKRFDFEQVTVKKFRTWAERRQFNREMKRKQAESERPILPANQKLITLSVQDAPTKKEFVINPNGKSEVCILHEYMQRVLKVRPVYNFFECENPSEPFGASVTIDGVTYGSGTASSKKLAKNKAARATLEILIPDFVKQTSEEKPKDSEELEYFNHISIEDSRVYELTSKAGLLSPYQILHECLKRNHGMGDTSIKFEVVPGKNQKSEYVMACGKHTVRGWCKNKRVGKQLASQKILQLLHPHVKNWGSLLRMYGRESSKMVKQETSDKSVIELQQYAKKNKPNLHILSKLQEEMKRLAEEREETRKKPKMSIVASAQPGGEPLCTVDV
For B1, the binding entry in assay [1] is reported as “binds”.

B2: DGCR8 (endogenous, JHH-7 cells) (protein, UniProt Q8WYQ5 1-773)
chain: B1 chain
As to B2, the binding result in assay [2] is recorded as “binds”.

Source of the values: publication PMC10403887.
